Earlier results in US8067243B2 (priority 2008, dated 2011).

Conditions: in vivo; cited from earlier work

## CN1CC[C@]23c4c5ccc(O)c4O[C@H]2[C@@H](O)C=C[C@H]3[C@H]1C5 [Morphine]
  Retention Time: 1 to 3 days
